The supplement of paper PMC11732987, “Enantioselective OTUD7B fragment discovery through chemoproteomics screening and high-throughput optimisation” (Communications Chemistry, 2025)
The list shows a part of the results. The data scatter; read single values as rough.

Amino acid sequences for entries named in this document (tags omitted). A change or cut given only in a name is not applied to a line headed by its entry. Residues count along the entry.
UniProt O15440: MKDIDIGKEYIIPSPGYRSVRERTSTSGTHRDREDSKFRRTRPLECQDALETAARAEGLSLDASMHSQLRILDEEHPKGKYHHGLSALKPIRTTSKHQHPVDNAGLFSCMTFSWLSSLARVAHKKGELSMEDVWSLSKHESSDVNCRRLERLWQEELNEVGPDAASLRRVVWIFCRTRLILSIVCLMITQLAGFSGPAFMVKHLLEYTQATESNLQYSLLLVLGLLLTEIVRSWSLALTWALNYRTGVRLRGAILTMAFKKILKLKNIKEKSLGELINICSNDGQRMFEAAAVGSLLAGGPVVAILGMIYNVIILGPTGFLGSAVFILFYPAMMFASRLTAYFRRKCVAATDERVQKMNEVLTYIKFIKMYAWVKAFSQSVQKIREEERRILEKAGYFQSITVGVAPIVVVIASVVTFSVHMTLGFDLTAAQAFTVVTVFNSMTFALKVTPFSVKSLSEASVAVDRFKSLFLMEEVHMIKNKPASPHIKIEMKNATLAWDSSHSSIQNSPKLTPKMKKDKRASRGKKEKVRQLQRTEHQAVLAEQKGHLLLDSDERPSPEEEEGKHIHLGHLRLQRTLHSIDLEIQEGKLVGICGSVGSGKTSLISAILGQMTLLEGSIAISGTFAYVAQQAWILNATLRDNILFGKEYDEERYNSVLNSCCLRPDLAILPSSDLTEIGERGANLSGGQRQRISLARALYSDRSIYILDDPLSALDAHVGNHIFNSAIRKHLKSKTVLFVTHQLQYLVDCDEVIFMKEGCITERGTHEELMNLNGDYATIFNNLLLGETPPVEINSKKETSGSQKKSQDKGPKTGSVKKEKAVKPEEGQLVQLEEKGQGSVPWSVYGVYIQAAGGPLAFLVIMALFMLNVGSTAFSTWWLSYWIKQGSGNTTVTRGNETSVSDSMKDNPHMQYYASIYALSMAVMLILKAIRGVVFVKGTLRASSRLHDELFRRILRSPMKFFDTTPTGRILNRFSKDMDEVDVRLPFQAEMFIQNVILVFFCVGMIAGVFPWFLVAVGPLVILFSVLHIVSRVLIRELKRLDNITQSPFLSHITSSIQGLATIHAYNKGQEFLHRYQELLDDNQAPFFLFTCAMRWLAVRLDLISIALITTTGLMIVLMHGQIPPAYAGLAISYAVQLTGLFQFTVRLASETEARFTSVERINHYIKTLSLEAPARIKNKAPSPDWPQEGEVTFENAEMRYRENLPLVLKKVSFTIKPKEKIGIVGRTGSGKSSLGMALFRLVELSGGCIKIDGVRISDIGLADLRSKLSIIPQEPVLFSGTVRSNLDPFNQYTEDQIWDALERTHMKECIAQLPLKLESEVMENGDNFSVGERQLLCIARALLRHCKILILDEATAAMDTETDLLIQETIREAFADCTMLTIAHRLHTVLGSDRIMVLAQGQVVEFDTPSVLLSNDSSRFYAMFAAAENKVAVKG
UniProt P33897, 713-745: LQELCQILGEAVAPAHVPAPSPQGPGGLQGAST
UniProt O95870: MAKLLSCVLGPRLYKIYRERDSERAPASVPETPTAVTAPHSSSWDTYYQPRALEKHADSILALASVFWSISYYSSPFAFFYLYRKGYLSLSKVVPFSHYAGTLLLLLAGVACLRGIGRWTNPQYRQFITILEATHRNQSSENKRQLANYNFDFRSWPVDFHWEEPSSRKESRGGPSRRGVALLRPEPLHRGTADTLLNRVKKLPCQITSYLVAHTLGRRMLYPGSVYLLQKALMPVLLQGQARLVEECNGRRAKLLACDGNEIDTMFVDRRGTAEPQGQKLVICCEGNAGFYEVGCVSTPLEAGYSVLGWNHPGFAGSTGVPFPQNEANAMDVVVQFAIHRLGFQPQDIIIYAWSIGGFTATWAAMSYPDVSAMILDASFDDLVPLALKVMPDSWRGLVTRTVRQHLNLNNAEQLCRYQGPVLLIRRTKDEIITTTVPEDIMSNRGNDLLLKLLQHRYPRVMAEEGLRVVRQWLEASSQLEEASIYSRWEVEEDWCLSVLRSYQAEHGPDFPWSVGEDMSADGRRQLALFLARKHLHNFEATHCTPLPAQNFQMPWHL
UniProt Q8WTS1, 298-318: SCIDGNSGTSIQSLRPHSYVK
UniProt Q9UG63: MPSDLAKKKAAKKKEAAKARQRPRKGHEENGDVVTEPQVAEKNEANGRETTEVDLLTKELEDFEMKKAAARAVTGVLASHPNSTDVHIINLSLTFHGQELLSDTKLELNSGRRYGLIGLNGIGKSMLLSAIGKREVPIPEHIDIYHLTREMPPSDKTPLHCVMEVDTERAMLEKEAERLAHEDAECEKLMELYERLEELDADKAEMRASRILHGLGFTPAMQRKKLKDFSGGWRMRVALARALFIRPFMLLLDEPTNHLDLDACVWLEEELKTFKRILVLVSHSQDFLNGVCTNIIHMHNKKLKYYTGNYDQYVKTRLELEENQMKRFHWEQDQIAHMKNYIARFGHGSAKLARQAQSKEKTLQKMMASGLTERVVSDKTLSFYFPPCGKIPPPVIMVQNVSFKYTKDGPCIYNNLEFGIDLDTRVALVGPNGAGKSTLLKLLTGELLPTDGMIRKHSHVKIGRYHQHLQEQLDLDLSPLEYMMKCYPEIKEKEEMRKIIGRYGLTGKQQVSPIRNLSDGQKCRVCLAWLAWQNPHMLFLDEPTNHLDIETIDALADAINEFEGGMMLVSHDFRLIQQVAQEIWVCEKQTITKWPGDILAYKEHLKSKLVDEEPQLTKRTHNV
UniProt Q9BV23: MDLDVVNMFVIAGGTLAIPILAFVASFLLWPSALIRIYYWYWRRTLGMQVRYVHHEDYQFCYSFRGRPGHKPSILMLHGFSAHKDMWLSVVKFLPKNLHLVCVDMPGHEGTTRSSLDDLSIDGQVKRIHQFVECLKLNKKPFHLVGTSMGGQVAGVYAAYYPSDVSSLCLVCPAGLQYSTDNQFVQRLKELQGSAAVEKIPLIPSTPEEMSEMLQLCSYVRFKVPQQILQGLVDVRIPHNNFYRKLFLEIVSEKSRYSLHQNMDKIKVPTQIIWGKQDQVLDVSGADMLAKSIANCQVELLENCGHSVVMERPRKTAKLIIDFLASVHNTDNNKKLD
UniProt Q12979: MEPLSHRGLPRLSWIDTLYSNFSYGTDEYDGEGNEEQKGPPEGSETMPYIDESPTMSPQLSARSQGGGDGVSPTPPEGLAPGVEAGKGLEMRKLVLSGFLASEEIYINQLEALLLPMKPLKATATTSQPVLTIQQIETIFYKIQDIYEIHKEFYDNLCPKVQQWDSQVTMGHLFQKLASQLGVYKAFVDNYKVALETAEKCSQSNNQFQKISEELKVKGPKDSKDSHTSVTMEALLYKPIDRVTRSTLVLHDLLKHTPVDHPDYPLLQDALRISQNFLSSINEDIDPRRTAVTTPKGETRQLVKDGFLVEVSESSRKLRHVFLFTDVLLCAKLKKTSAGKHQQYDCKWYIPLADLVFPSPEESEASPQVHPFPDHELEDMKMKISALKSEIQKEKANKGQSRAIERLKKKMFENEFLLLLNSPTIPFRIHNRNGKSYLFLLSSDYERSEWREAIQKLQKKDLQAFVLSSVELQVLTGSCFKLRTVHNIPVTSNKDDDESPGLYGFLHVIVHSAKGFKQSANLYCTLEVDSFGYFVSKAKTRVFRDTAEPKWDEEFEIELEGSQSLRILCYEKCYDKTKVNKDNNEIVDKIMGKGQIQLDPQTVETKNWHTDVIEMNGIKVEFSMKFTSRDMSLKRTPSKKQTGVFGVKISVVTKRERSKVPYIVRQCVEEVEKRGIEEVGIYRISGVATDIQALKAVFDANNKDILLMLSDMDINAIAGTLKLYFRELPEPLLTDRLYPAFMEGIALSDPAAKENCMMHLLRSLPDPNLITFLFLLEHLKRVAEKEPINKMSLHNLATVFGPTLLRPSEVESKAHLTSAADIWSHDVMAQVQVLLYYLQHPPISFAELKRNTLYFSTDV
UniProt Q86V21, 4-24: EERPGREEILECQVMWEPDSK
UniProt P16219, 149-171: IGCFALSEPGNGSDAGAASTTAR
UniProt Q15057: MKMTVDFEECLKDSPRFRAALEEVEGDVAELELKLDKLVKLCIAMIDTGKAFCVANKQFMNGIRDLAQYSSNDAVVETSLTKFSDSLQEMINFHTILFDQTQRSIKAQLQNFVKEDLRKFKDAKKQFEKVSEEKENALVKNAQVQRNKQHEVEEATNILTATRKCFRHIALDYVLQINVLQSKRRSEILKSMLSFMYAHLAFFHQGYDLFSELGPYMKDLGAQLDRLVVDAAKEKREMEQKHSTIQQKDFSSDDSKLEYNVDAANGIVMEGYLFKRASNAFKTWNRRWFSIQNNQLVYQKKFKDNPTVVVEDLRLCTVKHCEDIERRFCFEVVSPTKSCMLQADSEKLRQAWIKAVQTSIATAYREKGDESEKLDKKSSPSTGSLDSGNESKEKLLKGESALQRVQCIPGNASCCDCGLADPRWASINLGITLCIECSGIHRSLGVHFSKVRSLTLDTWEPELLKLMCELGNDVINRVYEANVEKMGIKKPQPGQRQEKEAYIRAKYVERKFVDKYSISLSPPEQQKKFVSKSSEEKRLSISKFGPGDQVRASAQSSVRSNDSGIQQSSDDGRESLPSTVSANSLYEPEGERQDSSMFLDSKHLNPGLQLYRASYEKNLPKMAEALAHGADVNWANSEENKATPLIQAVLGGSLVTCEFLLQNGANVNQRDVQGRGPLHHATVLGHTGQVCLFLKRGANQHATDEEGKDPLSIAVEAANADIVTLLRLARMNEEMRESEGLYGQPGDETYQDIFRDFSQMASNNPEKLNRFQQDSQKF
UniProt Q9BZC7, 1362-1382: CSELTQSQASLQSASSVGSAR
UniProt Q9H845: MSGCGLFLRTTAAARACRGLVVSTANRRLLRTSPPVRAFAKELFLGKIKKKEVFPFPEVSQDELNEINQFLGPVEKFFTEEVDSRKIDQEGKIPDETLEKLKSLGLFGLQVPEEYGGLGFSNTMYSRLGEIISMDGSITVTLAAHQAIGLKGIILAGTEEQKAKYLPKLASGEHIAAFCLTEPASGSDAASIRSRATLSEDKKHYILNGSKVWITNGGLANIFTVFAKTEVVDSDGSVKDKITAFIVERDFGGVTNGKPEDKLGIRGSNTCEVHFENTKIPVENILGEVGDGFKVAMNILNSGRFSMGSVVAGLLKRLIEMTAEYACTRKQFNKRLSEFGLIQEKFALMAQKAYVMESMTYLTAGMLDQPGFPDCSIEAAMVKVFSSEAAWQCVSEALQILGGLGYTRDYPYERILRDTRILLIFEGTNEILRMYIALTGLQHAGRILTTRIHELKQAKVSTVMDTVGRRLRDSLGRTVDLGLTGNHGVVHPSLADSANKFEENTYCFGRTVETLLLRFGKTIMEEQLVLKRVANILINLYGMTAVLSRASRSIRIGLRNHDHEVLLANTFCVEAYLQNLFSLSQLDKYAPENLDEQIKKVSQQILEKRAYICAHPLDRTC
UniProt Q9NRK6, 570-605: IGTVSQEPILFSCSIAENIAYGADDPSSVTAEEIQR
UniProt Q13685: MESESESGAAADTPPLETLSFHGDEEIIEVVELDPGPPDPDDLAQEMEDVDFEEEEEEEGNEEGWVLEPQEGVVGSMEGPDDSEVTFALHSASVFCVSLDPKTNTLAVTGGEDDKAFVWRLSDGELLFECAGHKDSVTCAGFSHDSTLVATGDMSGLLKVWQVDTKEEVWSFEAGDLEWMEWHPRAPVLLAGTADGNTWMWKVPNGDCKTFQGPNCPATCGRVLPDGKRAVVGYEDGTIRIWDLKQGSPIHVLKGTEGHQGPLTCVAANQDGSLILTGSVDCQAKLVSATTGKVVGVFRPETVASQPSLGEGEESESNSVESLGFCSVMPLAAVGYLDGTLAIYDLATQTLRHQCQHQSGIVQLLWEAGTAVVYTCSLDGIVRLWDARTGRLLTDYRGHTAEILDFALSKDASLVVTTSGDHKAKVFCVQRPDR
UniProt Q9NRG9: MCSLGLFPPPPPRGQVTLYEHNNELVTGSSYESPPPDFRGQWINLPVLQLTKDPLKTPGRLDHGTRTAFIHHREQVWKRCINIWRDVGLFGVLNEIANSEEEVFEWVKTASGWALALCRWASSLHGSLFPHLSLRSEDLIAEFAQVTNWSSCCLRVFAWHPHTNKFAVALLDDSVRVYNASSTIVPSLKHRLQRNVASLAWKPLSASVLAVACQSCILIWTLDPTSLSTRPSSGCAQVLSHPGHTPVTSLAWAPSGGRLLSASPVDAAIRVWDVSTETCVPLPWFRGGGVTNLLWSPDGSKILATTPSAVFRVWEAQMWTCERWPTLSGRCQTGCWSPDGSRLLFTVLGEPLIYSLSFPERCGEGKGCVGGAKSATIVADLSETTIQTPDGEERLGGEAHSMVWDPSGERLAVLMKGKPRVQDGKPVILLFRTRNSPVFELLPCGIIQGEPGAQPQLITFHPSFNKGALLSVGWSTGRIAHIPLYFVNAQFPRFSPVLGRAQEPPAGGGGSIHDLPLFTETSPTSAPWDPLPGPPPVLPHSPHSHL
UniProt P09110, 217-237: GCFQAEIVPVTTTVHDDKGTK

Legend:
[1] = compound: ClCC(=O)N[C@@H]1CCCc2ccccc12; assay: log2 mean competition ratio of IA-DTB cysteine labelling (DMSO/compound) (log2 ratio); higher = stronger cysteine engagement by compound; details: treatment time: 4 h, cell line lysate: HEK293T
Experimental: (§1)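 IA-DTB competitive cysteine chemoproteomics in HEK293T RIPA lysate. Lysates were treated with compound 29 or 30 at 50 or 200 µM for 4 h, then IA-DTB (500 µM, 1 h), trypsin-digested, NeutrAvidin-enriched and analysed by diaPASEF. Competition ratio = intensity DMSO / intensity compound (n=4 treated, n=64 DMSO); binding: mean log2 CR ≥ 1 and p ≤ 0.05 plus QC filters. Target is the cysteine site.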

[2] = compound: ClCC(=O)N[C@H]1CCCc2ccccc12; assay: as above; details: treatment time: 4 h, cell line lysate: HEK293T
Experimental: as §1

Row | Target | log2 mean competition ratio ([1]; 50 µM) | log2 mean competition ratio ([1]; 200 µM) | log2 mean competition ratio ([2]; 50 µM) | log2 mean competition ratio ([2]; 200 µM)
1 | ABCC5 C760 (UniProt O15440) | -0.191 | 0.0253 |  | 
2 | ACADVL C237 (UniProt P49748) | -0.0373 | -0.121 |  | 
3 | ABCC5 C347 (UniProt O15440) | -0.0745 | 0.197 |  | 
4 | ABCD1 C39 (UniProt P33897) | -0.333 | 0.224 | 0.0134 | 0.138
5 | ABHD16A C416 (UniProt O95870) | 0.0197 | 0.329 |  | 
6 | ACAA2 C179 | -0.173 | -1.15 |  | 
7 | ABCC10 C1425 (UniProt Q5T3U5) | -0.199 | -0.00674 |  | 
8 | ABCB8 C364 (UniProt Q9NUT2) | -0.0723 | 0.193 |  | 
9 | ABCF1 C515 | -0.965 | 0.698 |  | 
10 | ABHD5 C299 (UniProt Q8WTS1) | -0.00156 | 0.00924 |  | 
11 | ABL2 C510 (UniProt P42684) | -0.0308 | -0.285 |  | 
12 | ABCF2 C388 (UniProt Q9UG63) | 0.734 | 0.328 |  | 
13 | ABCB1 C431 (UniProt P08183) | 0.0511 | -0.354 |  | 
14 | ABHD6 C134 (UniProt Q9BV23) | -0.255 | 0.13 |  | 
15 | ACADSB C385 (UniProt P45954) | 0.21 | 0.0988 |  | 
16 | ABR C667 (UniProt Q12979) | -0.168 | -0.0639 |  | 
17 | ACAT1 C119 | -0.178 | 1.1 |  | 
18 | ABR C201 (UniProt Q12979) | 0.508 | 0.148 |  | 
19 | ABCF3 C680 (UniProt Q9NUQ8) | -0.196 | -0.254 |  | 
20 | ABR C346 (UniProt Q12979) | 0.0137 | 0.0183 |  | 
21 | AACS C15 (UniProt Q86V21) | -0.315 | 0.215 |  | 
22 | ABI2 C33 (UniProt Q9NYB9) | -0.0341 | -0.361 |  | 
23 | ABCF2 C586 (UniProt Q9UG63) | 0.0347 | 0.0664 |  | 
24 | ACADS C151 (UniProt P16219) | 0.201 | 0.181 |  | 
25 | ABCD1 C599 (UniProt P33897) | 0.0414 | -0.107 |  | 
26 | AARS1 C671 (UniProt H3BPK7) | -0.235 | -0.491 |  | 
27 | AASDH C736 (UniProt Q4L235) | 0.0973 | -0.192 |  | 

Row | Target | log2 mean competition ratio ([1]; 50 µM) | log2 mean competition ratio ([1]; 200 µM) | log2 mean competition ratio ([2]; 50 µM) | log2 mean competition ratio ([2]; 200 µM)
28 | ACAP2 C10 (UniProt Q15057) | -0.194 | 0.767 |  | 
29 | ABCC5 C146 (UniProt O15440) | -0.243 | 0.507 |  | 
30 | ABHD5 C140 (UniProt Q8WTS1) | -0.251 | 0.132 |  | 
31 | ABCA2 C1362 (UniProt Q9BZC7) | 0.264 | 0.473 |  | -0.00875
32 | ABHD10 C100 (UniProt Q9NUJ1) | -0.39 | 0.209 | -0.288 | -0.168
33 | ABHD16A C258 (UniProt O95870) | 0.0814 | 0.329 | 0.155 | 0.138
34 | ACAP2 C321 (UniProt Q15057) | -0.005 | 0.1 | -0.111 | 0.159
35 | AAK1 C87 | -0.00163 | 0.0585 | -0.367 | -0.111
36 | ACACA C813 (UniProt Q13085) | 0.0921 | 0.534 | -0.322 | 0.31
37 | ACAD9 C271 (UniProt Q9H845) | -0.0944 | -0.157 | -0.36 | -0.222
38 | ABCD1 C631 (UniProt P33897) | 0.368 | -0.0265 | 0.199 | 0.268
39 | ABCB10 C582 (UniProt Q9NRK6) | -0.355 | -0.343 | -0.609 | -0.185
40 | AAMP C428 (UniProt Q13685) | 0.137 | -0.0573 | -0.177 | -0.229
41 | ABCB8 C323 (UniProt Q9NUT2) | -0.121 | 0.346 | 0.395 | -0.0646
42 | ABI1 C33 (UniProt Q8IZP0) | -0.18 | -0.0931 | -0.644 | -0.0688
43 | AASS C534 | -0.0113 | 0.0134 | 0.034 | -0.0396
44 | ABCF1 C655 | -0.216 | -0.174 | -0.268 | -0.194
45 | ABCC1 C1479 (UniProt P33527) | -0.0514 | 0.0857 | -0.401 | -0.313
46 | ABCD1 C717 (UniProt P33897) | -0.00823 | 0.0343 | 0.101 | -0.27
47 | ACADS C246 (UniProt P16219) | -0.0515 | -0.184 | -0.0307 | 0.0662
48 | ABCF3 C102 (UniProt Q9NUQ8) | 0.0893 | -0.23 | 0.0416 | -0.104
49 | AAAS C368 (UniProt Q9NRG9) | -0.0221 | -0.0278 | -0.00177 | 0.0226
50 | ACAA1 C218 (UniProt P09110) | -0.0802 | -0.254 | 0.275 | -0.311
51 | AAAS C2 (UniProt Q9NRG9) | -0.135 | -0.332 | -0.117 | 0.107
52 | ACAP2 C329 (UniProt Q15057) | 0.184 | 0.378 | -0.417 | 0.311
53 | ACAA1 C177 (UniProt P09110) | -0.0827 | 0.138 | 0.039 | 0.207

3 entries from above, as a markdown table.

| Row | Target | log2 mean competition ratio ([1]; 50 µM) | log2 mean competition ratio ([1]; 200 µM) | log2 mean competition ratio ([2]; 50 µM) | log2 mean competition ratio ([2]; 200 µM) |
| --- | --- | --- | --- | --- | --- |
| 33 | ABHD16A C258 (UniProt O95870) | 0.0814 | 0.329 | 0.155 | 0.138 |
| 34 | ACAP2 C321 (UniProt Q15057) | -0.005 | 0.1 | -0.111 | 0.159 |
| 35 | AAK1 C87 | -0.00163 | 0.0585 | -0.367 | -0.111 |
